Percent effect of library compounds

A: 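Whole-cell growth test on Mycobacterium tuberculosis, read after 3 days in glucose-containing 7H9 medium; the read-out is not stated. Tested at 500 µM. Direction is inferred from retests: higher values go with more growth inhibition. About 18,000 compounds were tested under these conditions; 7.9% (about 1,400) showed 50% or more at least once.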
B: 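Growth of Mycobacterium tuberculosis over 4 days (cholesterol / DPPC medium with tyloxapol); the read-out is not stated. Compounds at 500 µM. Direction is inferred from retests: higher values go with more growth inhibition. About 18,000 compounds were tested under these conditions; 5% (about 900) showed 50% or more at least once.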

Values are the deposited “Percent Effect”, in %.
The record does not define 0% and 100%; most values in the screen are far below 50% and negative numbers occur (in some assays of this library far below -100).
The compounds are a random part of those screened.

CN(Cc1ccccc1)C(=O)c1ccn(C)c(=O)c1 gave A: 0.5234%; B: -0.9976%.
Nc1nnc(SCC(=O)NCCCc2cccnc2)s1 gave A: 13.82%; B: 10.88%.
COc1ccc(CN2CC(C)(OC)C2)c(OC)c1OC gave A: 11.97%; B: 3.518%.
CC(NCCCN1CCCC1)C(=O)NC1CCCC1 (stereo not given) gave A: 26.11%; B: 1.083%.
O=C(Cn1cnnn1)N(CC(F)(F)F)C1CCC1 gave A: 2.449%; B: 8.514%.
CCS(=O)(=O)N(C)CCCNc1cccc(C)n1 gave A: 35.35%; B: 48.5%.
CCS(=O)(=O)NCc1ccc(OC)cc1 gave A: 22.84%; B: 30.83%.
COc1cccc(C)c1NC(=O)NCC1COCCO1 (stereo not given) gave A: 4.49%; B: -10.5%.
CCS(=O)(=O)CC1(O)CCCCC1 gave A: -3.089%; B: -10.81%.
NCc1ccncc1OCC(F)(F)F gave A: 25.55%; B: 70.97%.
CNS(=O)(=O)C1CCN(S(=O)(=O)c2ccccc2)CC1 gave A: 0.4463%; B: 3.103%.
Nc1ccn(C2CCSCC2)n1 gave A: 16.57%; B: 3.097%.
CN(C)C(=O)CN(C1CCCC1)C1CC1 gave A: -1.651%; B: -5.921%.
COc1ccc(CC(=O)N2CCN(C)CC2)c(OC)c1 gave A: 11.95%; B: -11.73%.
CC(C)CNS(=O)(=O)c1ccc(CN)cc1 gave A: 31.99%; B: 13.31%.
CCCc1cc(-c2nc3c([nH]2)CCCNC3=O)on1 gave A: 8.368%; B: -10.05%.
CCNC(=O)CCN(C)Cc1nc2cccc(C)c2[nH]1 gave A: 10.28%; B: -5.865%.
COCCN(C)Cc1ccc(C(=O)NC2CC2)cc1 gave A: -0.2487%; B: -2.414%.
O=C(c1ccc[nH]1)N(Cc1ccco1)CC1CCCO1 (stereo not given) gave A: 21.56%; B: 10.88%.
CC(CN)c1cccc(F)c1 (stereo not given) gave A: 8.821%; B: 0.7581%.
CCOc1ccc(C(=O)N2CCN(CCO)CC2)cn1 gave A: -4.815%; B: -11.2%.
CCCN(CCN(C)C)C(=O)CCCOC gave A: 3.91%; B: 3.912%.
Cn1ccnc1CNCCO gave A: 2.992%; B: 5.985%.
CCCNC(=O)c1cc(C(C)C)on1 gave A: 55.23%; B: 66.2%.
COCc1ccc(C(=O)NC2CCC(O)CC2)cc1 (stereo not given) gave A: 2.719%; B: 7.903%.

The last 2 entries again:

CCCNC(=O)c1cc(C(C)C)on1 read A: 55.23%; B: 66.2%.
COCc1ccc(C(=O)NC2CCC(O)CC2)cc1 (stereo not given) read A: 2.719%; B: 7.903%.

Data taken from ChEMBL document CHEMBL3988442, “University of Dundee, Small-Polar-MMV Screening Library” (2021).